PubChem BioAssay AID652272 | Drosophila RNAi Screening Center | 2013

- Test: 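Genome-wide knock-down search for components of Hedgehog signalling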 (primary screen)
- System: Drosophila clone 8 (Cl8) cells
- Reagents: long dsRNA against Drosophila genes
- Measured: 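Plate reader light from a firefly reporter under a ptc promoter fragment that responds to Hedgehog, with Renilla light as transfection reference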
- Direction: firefly Hh reporter signal: higher = more ptc reporter light; Renilla reference signal: higher = more Renilla control light
- Rule for the call: 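Hit when the z-score averaged over two replicates is under -2 or over +3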
- Calls: active = hit: reporter lowered or raised; inactive = not a hit
In all, the deposit lists about 21,000 reagents; this is an unselected part of those with a known target gene and a result. Of all reagents, 503 (2.4%) are marked active. 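Raw plate light values, not normalised; calls rest on replicate z-scores that were not deposited; hits include reporter decreases as well as increases.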 Unmarked entries are inactive. Names joined by + are all predicted targets of the reagent. Not given: the amount of reagent, the time to read-out.

The first 8 entries, to show the layout:
Gene,amplicon,"firefly Hh reporter signal, replicate 1","firefly Hh reporter signal, replicate 2","firefly Hh reporter signal, replicate 3","Renilla reference signal, replicate 1","Renilla reference signal, replicate 2"
Cyp309a1 (GeneID 33438),DRSC00747,89345,94445,,2498,2229
Datp (GeneID 318908),DRSC01102,5.62e5,2.02e5,,26435,8172
Frl (GeneID 39561),DRSC09300,2.43e5,,,6077,
Frl (GeneID 39561),DRSC10027,1.02e5,,,1812,3268
Frl (GeneID 39561),DRSC10716,5.31e5,1.28e5,87590,6932,1946
Nab2 (GeneID 42897),DRSC14158,92061,85163,,4349,4000
CG18128 (GeneID 37756),DRSC04304,60311,41190,,1620,4210
CG12782 (GeneID 37685),DRSC04127,76118,58656,,1089,5005

The listing, repeating the preview:
Gene,amplicon,"firefly Hh reporter signal, replicate 1","firefly Hh reporter signal, replicate 2","firefly Hh reporter signal, replicate 3","Renilla reference signal, replicate 1","Renilla reference signal, replicate 2"
Cyp309a1 (GeneID 33438),DRSC00747,89345,94445,,2498,2229
Datp (GeneID 318908),DRSC01102,5.62e5,2.02e5,,26435,8172
Frl (GeneID 39561),DRSC09300,2.43e5,,,6077,
Frl (GeneID 39561),DRSC10027,1.02e5,,,1812,3268
Frl (GeneID 39561),DRSC10716,5.31e5,1.28e5,87590,6932,1946
Nab2 (GeneID 42897),DRSC14158,92061,85163,,4349,4000
CG18128 (GeneID 37756),DRSC04304,60311,41190,,1620,4210
CG12782 (GeneID 37685),DRSC04127,76118,58656,,1089,5005
CG5065 (GeneID 36860),DRSC06912,80288,45377,,1957,3190
CG10602 (GeneID 35146),DRSC02075,84818,63794,,3548,2736
Naa30B (GeneID 317976),DRSC08245,90615,44580,,2464,3316
COX6AL2 + Ir75d,DRSC10081,67861,1.59e5,,2136,4091
Tspo + rempA,DRSC00533,90473,1.18e5,,3544,4776
stai (GeneID 33863),DRSC02920,1.04e5,50524,,2874,5880
CG6220 (GeneID 36520),DRSC06969,84678,53019,,2518,4330
GluRIID (GeneID 44483),DRSC16723,5.58e5,85368,,30717,2336
dtr (GeneID 318856),DRSC01847,1.14e5,1.50e5,,3413,7217
CG4424 (GeneID 42390),DRSC15576,91568,55244,,3773,2368
CG11438 (GeneID 40469),DRSC11660,96537,1.16e5,,1818,3782
Pgant9 (GeneID 246627),DRSC05621,1.37e5,3.09e5,,4133,11488
Pgant9 (GeneID 246627),DRSC06584,95594,40883,,2744,3152
Pgant9 (GeneID 246627),DRSC07185,1.08e5,56377,,3156,4631
Pgant9 (GeneID 246627),DRSC07186,1.10e5,41395,,2937,3223
Pgant9 (GeneID 246627),DRSC07187,1.41e5,49323,,4212,3682
Pgant9 (GeneID 246627),DRSC07189,98204,48201,,2778,3045
CG18269 (GeneID 33785),DRSC02660,75030,56486,,1926,5888
ND-B14.5B (GeneID 33528),DRSC00346,1.68e5,69371,,4081,7187
Sil1 (GeneID 43034),DRSC14242,86038,41851,,3160,711
Tis11 (GeneID 32222),DRSC20293,70437,54546,,1612,1157
CG13510 (GeneID 37596),DRSC04152,1.27e5,67354,,3162,6048
CG2258 (GeneID 31729),DRSC18222,75152,79242,,1648,1670
CG8701 (GeneID 35812),DRSC07237,84792,50556,,3448,2156
promL (GeneID 38372),DRSC08733,86182,77746,,3397,3275
CG2812 (GeneID 37801),DRSC04319,71565,53506,,2112,4476
beat-VII (GeneID 43213),DRSC13780,55852,2.48e5,,15040,6685
beat-VII (GeneID 43213),DRSC14743,86386,1.07e5,,2422,3792
beat-VII (GeneID 43213),DRSC14744,1.05e5,1.35e5,,3303,4112
Nup160 + RfC38,DRSC01997,52386,27552,,2491,1226
l(2)k05911 (GeneID 34731),DRSC02523,5.04e5,87136,,3688,3688
gig (GeneID 40201),DRSC11351,1.08e5,84712,,4379,3143
RpL7-like (GeneID 34625),DRSC02836,86325,4.28e5,42566,2827,31213
Spn28B (GeneID 34035),DRSC02982,2.01e5,4.91e5,80082,4777,29066
Doa (GeneID 43415),DRSC13892,43511,2.97e5,,12325,6576
Doa (GeneID 43415),DRSC13893,49216,2.08e5,,13592,4692
Doa (GeneID 43415),DRSC13895,47995,3.00e5,,13060,6888
Doa (GeneID 43415),DRSC13896,44535,2.84e5,,11636,6022
Doa (GeneID 43415),DRSC13897,37296,2.60e5,,9793,6356
Doa (GeneID 43415),DRSC16650,80518,1.53e5,,2117,4456
SLC22A (GeneID 40437),DRSC11826,1.02e5,1.36e5,,3498,3516
SLC22A (GeneID 40437),DRSC11827,1.22e5,1.84e5,,4501,4840
CG14042 + SP555,DRSC02367,63801,47373,,1764,4333
CG14042 + SP555,DRSC03428,1.56e5,74169,,3814,7287
dor (GeneID 31118),DRSC18765,2.14e5,1.23e5,,5226,3948
Hmbs (GeneID 46140),DRSC08632,1.06e5,76227,,5041,3058
ND-B15 (GeneID 36640),DRSC06199,98132,81525,,1896,4966
CG17121 (GeneID 42721),DRSC15176,5.62e5,1.11e5,,30246,3289
Dhc93AB (GeneID 42485),DRSC16644,5.24e5,72985,,24400,2048
CG13814 (retired record) (GeneID 40223),DRSC10069,1.04e5,1.41e5,,3527,4611
CG4730 (GeneID 43099),DRSC15633,5.19e5,1.40e5,,26625,4369
Pvr (GeneID 34127),DRSC03080,65338,49424,,2704,1613
mRpL21 (GeneID 40091),DRSC11100,78272,1.11e5,,2699,2825
CG31142 (GeneID 251610),DRSC13647,51265,1.90e5,,12529,4764
Lkb1 (GeneID 41673),DRSC16481,1.35e5,96866,,4752,3574
Cht2 (GeneID 38223),DRSC08650,1.24e5,79939,,5570,3440
PolD1 (GeneID 39746),DRSC11138,84834,,,1386,2429
Rgk2 (GeneID 37132),DRSC06503,93111,60044,,2797,4336
Hr78 (GeneID 40378),DRSC11866,1.22e5,93162,,4410,3334
CG17575 (GeneID 36414),DRSC06682,1.05e5,69625,,2519,4727
CG4377 (GeneID 37489),DRSC04467,75292,95137,,3462,3799
CG32599 (GeneID 318108),DRSC19433,1.13e5,59498,,2584,1537
hrm (GeneID 35499),DRSC04853,89357,69657,,1808,5706
ph-d (GeneID 44889),DRSC18819,42347 (active),57553,,3178,2996
CG30384 (GeneID 246584),DRSC06032,93076,54122,,2208,4226
